The record followed here is paper PMC3524764.

By UniProt entry, the sequences of proteins in these tests, tags left out.
UniProt O88704: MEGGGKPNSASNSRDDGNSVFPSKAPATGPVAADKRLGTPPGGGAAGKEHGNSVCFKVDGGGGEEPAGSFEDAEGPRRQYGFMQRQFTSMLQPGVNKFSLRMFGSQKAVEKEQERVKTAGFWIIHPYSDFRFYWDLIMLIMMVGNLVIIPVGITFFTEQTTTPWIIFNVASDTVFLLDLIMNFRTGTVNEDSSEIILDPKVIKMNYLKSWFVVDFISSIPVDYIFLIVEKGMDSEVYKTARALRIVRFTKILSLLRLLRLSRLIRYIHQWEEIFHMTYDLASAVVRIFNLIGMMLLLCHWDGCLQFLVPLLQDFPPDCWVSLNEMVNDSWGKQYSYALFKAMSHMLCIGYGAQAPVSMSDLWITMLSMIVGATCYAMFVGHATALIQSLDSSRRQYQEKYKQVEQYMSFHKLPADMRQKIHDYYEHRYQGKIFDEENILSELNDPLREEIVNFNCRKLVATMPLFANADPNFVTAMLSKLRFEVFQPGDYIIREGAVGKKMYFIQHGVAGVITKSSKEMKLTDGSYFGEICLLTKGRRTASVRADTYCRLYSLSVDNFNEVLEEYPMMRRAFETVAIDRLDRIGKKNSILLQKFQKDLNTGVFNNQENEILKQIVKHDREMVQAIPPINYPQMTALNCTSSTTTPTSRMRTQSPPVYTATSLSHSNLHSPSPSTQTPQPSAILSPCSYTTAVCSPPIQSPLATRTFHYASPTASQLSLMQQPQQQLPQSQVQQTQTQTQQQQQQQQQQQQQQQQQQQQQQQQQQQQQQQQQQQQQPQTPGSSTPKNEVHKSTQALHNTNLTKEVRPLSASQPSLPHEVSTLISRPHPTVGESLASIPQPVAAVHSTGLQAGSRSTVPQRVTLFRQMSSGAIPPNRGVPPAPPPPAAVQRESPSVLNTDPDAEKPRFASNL

Results are given in words; binding and its absence hold for the method and conditions named. Binding seen in cells or lysates may run through a third protein. Some entries that bind do so weakly or less than the wild type.

Assay [1] addresses HCN1 (hyperpolarization-activated cyclic nucleotide gated channel 1), endogenous in mouse brain (mouse (endogenous in mouse brain)) (UniProt O88704). Description: co-IP; lysate of the EC-rich cortex region (from five mice) of HCN1+/+ and HCN1-/- mice in HBS-T lysis buffer; precipitated with anti-HCN1 antibody, 4°C 2 h, Dynabeads Protein G; immunoblot. (In general: A western blot detects proteins with antibodies after separation by electrophoresis.)

Assay [2] has the same target. As to the kind of experiment: co-IP; lysate of the cortex of wild type mice (13 weeks old in Figure 3I-K) in HBS-T lysis buffer (10 mM HEPES pH 7.6, 150 mM NaCl, 5 mM EDTA, 0.5% Triton X-100); precipitated with anti-HCN1, anti-X11 or anti-X11L/Mint2 antibody, 4°C 2 h, Dynabeads Protein G; immunoblot; HCN1-/-, X11-/- or X11L-/- mice as controls.

B1: X11-like protein (X11L/X11β/Mint2), endogenous in mouse brain (protein, UniProt P98084 1-750)
chain: MAHRKRQSTASSMLDHRARPGPIPHDQEPESEDTELPLESYVPTGLELGTLRPESPTPEEQECHNHSPDGDSSSDYVNNTSEEEDYDEGLPEEEEGVTYYIRYCPEDDSYLEGMDCNGEEYIAHGAHPVDTDECQEAVEDWTDSVGPHTHSHGAENSQEYPDGHLPIPEDDPTVLEVHDQEEDGHYCSSKESYQDYYPPETNGNTGGASPYRMRRGDGDLEEQEEDIDQIVAEIKMSLSMTSITSASEASPEHMPELDPGDSTEACPPSDTGHGPGRQEARPKSLNLPPEVKHPGDLQRGLKTKTRTPEERPKWPQEQVCNGLEQPRKQQRSDLNGPTDNNNIPETKKVASFPSFVAVPGPCEAEDLIDGIIFAANYLGSTQLLSERNPSKNIRMMQAQEAVSRVKRMQKAAKIKKKANSEGDAQTLTEVDLFISTQRIKVLNADTQETMMDHALRTISYIADIGNIVVLMARRRMPRSASQDCIETTPGAQEGKKQYKMICHVFESEDAQLIAQSIGQAFSVAYQEFLRANGINPEDLSQKEYSDIINTQEMYNDDLIHFSNSENCKELQLEKHKGEILGVVVVESGWGSILPTVILANMMNGGPAARSGKLSIGDQIMSINGTSLVGLPLATCQGIIKGLKNQTQVKLNIVSCPPVTTVLIKRPDLKYQLGFSVQNGIICSLMRGGIAERGGVRVGHRIIEINGQSVVATAHEKIVQALSNSVGEIHMKTMPAAMFRLLTGQETPLYI
With B1, the binding entry in assay [1] and in assay [2] was “binds” in each case.

B2: X11 (X11α/Mint1), endogenous in mouse brain (protein, UniProt B2RUJ5 1-842)
chain: MNHLEGSAEVEVADEAPGGEVNESVEADLEHPEVVEGQQPSPSPPPPAGHEPEDHRGHPAPPPPPPPQEEEEEERGECLARSASTESGFHNHTDTAEGDVLAAARDGYEAERAQDADDESAYAVQYRPEAEEYTEQAEAEHVEAAQRRALPNHLHFHSLEHEEAMNAAYSGYVYTHRLFHRAEDEPYAEPYADYGGLQEHVYEEIGDAPELEARDGLRLYERERDEAAAYRQEALGARLHHYDERSDGESDSPEKEAEFAPYPRMDSYEQEEDIDQIVAEVKQSMSSQSLDKAAEDMPEAEQDLERAPTPGGGHPDSPGLPAPAGQQQRVVGTPGGSEVGQRYSKEKRDAISLAIKDIKEAIEEVKTRTIRSPYTPDEPKEPIWVMRQDISPTRDCDDQRPVDGDSPSPGSSSPLGAESSSIPLHPGDPTEASTNKESRKSLASFPTYVEVPGPCDPEDLIDGIIFAANYLGSTQLLSDKTPSKNVRMMQAQEAVSRIKTAQKLAKSRKKAPEGESQPMTEVDLFISTQRIKVLNADTQEPMMDHPLRTISYIADIGNIVVLMARRRMPRSNSQENVEASHPSQDGKRQYKMICHVFESEDAQLIAQSIGQAFSVAYQEFLRANGINPEDLSQKEYSDLLNTQDMYNDDLIHFSKSENCKDVFIEKQKGEILGVVIVESGWGSILPTVIIANMMHGGPAEKSGKLNIGDQIMSINGTSLVGLPLSTCQSIIKGLKNQSRVKLNIVRCPPVTTVLIRRPDLRYQLGFSVQNGIICSLMRGGIAERGGVRVGHRIIEINGQSVVATPHEKIVHILSNAVGEIHMKTMPAAMYRLLTAQEQPVYI
Turning to B2, the binding result in assay [1] and in assay [2] was “binds” in each case.
